The source of these data is publication PMC11915802.

Protein sequences, listed by entry. Tags and fused reporters are not part of them.
UniProt O15393: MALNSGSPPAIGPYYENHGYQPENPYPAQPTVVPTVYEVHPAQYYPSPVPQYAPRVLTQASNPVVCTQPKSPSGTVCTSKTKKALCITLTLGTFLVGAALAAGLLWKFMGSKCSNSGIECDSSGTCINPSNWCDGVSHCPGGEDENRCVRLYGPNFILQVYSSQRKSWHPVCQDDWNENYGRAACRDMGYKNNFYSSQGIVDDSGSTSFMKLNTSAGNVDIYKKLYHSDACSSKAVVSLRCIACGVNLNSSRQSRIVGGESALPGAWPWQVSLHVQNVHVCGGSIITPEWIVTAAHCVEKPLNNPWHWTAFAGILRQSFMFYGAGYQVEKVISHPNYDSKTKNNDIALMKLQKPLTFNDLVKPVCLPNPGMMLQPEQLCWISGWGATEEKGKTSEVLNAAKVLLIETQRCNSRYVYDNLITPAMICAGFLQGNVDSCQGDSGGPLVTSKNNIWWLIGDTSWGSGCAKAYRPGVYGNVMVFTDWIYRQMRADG

No constants are given. Whether binding was seen depends on the method and setting. Binding seen in cells or lysates may run through a third protein. Where a sequence is shown, tags or fusion partners need not be part of it.

The assay deals with flag-tagged transmembrane protease serine 2 (TMPRSS2) (UniProt O15393). In words: co-IP; 293T cells co-transfected with the indicated plasmids for 24 h; lysed in RIPA buffer (150 mM NaCl, 1% NP40, 20 mM Tris-HCl, 1 mM EDTA, pH 7.4, 0.25% sodium deoxycholate); lysate incubated with Flag antibody overnight at 4°C, Protein A/G plus agarose beads 2 h at 4°C; western blot. In general terms: A western blot detects proteins with antibodies after separation by electrophoresis.

B1: myc-tagged phospholipid scramblase 1 (PLSCR1) (protein, UniProt O15162 1-318)
chain: MDKQNSQMNASHPETNLPVGYPPQYPPTAFQGPPGYSGYPGPQVSYPPPPAGHSGPGPAGFPVPNQPVYNQPVYNQPVGAAGVPWMPAPQPPLNCPPGLEYLSQIDQILIHQQIELLEVLTGFETNNKYEIKNSFGQRVYFAAEDTDCCTRNCCGPSRPFTLRIIDNMGQEVITLERPLRCSSCCCPCCLQEIEIQAPPGVPIGYVIQTWHPCLPKFTIQNEKREDVLKISGPCVVCSCCGDVDFEIKSLDEQCVVGKISKHWTGILREAFTDADNFGIQFPLDLDVKMKAVMIGACFLIDFMFFESTGSQEQKSGVW
Take B1: the binding entry is listed as “no binding”.
